Assay results reported in patent US20220073613A1, “ACTIVATABLE MASKED ANTI-CTLA4 BINDING PROTEINS” (Xilio Development, Inc., priority 2018, published 2022).

Columns and labels:
NAT conditioned media = assay: AMSP-MS kinetic analysis of AK10 peptides, NAT; type: biochemical, human
Procedure: (§1) Ten sequences (AK10) shown in Table 19 were analyzed via AMSP-MS. These sequences were slightly modified from the original sequences to generate mass spectrometry-compatible peptides (in some cases adding basic residues to add positive charge) and spacing residues (GG) to produce longer ˜14-mer peptides. The peptides were prepared at a 500 nM final concentration in the AMSP-MS reaction. The AK10 library was also separately analyzed by LC-MS/MS for chemical validation of the peptide species. The AMSP-MS analysis was performed under standard substrate specificity profiling conditions, sampling time points during the reaction incubation at 0, 15, 60, 240 and 1200 min. Peptides were quantified by mass spectrometric label-free quantitation from the MS1 precursor ion peak areas for each peptide species. Enzyme progress curves were modeled in GraphPad Prism software v 8.0 and data were fitted using non-linear least squares fitting to the first order kinetic equation: where Y=percent product formation, Kobs is the observed rate, and t=time. In Michaelis-Menten kinetics, the observed rate Kobs is a function of the enzyme concentration and catalytic efficiency (kcat/KM). In this analysis of an enzyme mixture, Kobs was used to rank product cleavages.

H2228 conditioned media = assay: AMSP-MS kinetic analysis of AK10 peptides, H2228; type: biochemical, human
MC38 conditioned media = assay: AMSP-MS kinetic analysis of AK10 peptides, MC38; type: biochemical, mouse
Procedure: as §1

tumor conditioned media = assay: AMSP-MS kinetic analysis of AK10 peptides, patient tumor; type: biochemical, human
Procedure: as §1

Question: What does the source list for RGGVPLSLYSGGGK [AK-03]?
Answer: Cleaved by conditioned media samples? (NAT conditioned media): No; Cleaved by conditioned media samples? (H2228 conditioned media): No; Cleaved by conditioned media samples? (MC38 conditioned media): No; Cleaved by conditioned media samples? (tumor conditioned media): Yes

Question: RGGDSGGFMLTGGK [AK-05] was tested. Which “Cleaved by conditioned media samples?” value (NAT conditioned media) did it give?
Answer: No

Question: What about the “Cleaved by conditioned media samples?” value (H2228 conditioned media) of the same sequence?
Answer: No

Question: What about the “Cleaved by conditioned media samples?” value (MC38 conditioned media) of the same sequence?
Answer: No

Question: And the “Cleaved by conditioned media samples?” value (tumor conditioned media)?
Answer: Yes

Question: For LSGRSNAMPYDLYHP [AK-09], which “Cleaved by conditioned media samples?” value (NAT conditioned media) is on record?
Answer: Yes

Question: And the “Cleaved by conditioned media samples?” value (H2228 conditioned media)?
Answer: Yes

Question: And the “Cleaved by conditioned media samples?” value (MC38 conditioned media)?
Answer: Yes

Question: And the “Cleaved by conditioned media samples?” value (tumor conditioned media)?
Answer: Yes

Question: Which “Cleaved by conditioned media samples?” value (NAT conditioned media) does the source give for GSGRAAAVKSPGSK [AK-07] here?
Answer: No

Question: And the “Cleaved by conditioned media samples?” value (H2228 conditioned media)?
Answer: No

Question: And the “Cleaved by conditioned media samples?” value (MC38 conditioned media)?
Answer: No

Question: What about the “Cleaved by conditioned media samples?” value (tumor conditioned media) of the same sequence?
Answer: No

Question: What does the source list for RGGMPYDLYHPGGK [AK-04]?
Answer: Cleaved by conditioned media samples? (NAT conditioned media): Yes; Cleaved by conditioned media samples? (H2228 conditioned media): Yes; Cleaved by conditioned media samples? (MC38 conditioned media): No; Cleaved by conditioned media samples? (tumor conditioned media): Yes

Question: For RGSGHEQLTVGGSK [AK-06], which “Cleaved by conditioned media samples?” value (NAT conditioned media) is on record?
Answer: No

Question: What about the “Cleaved by conditioned media samples?” value (H2228 conditioned media) of the same sequence?
Answer: No

Question: And the “Cleaved by conditioned media samples?” value (MC38 conditioned media)?
Answer: No

Question: And the “Cleaved by conditioned media samples?” value (tumor conditioned media)?
Answer: No

Question: Which results are given for MPYDLYHPRQARVVG [AK-10]?
Answer: Cleaved by conditioned media samples? (NAT conditioned media): Yes; Cleaved by conditioned media samples? (H2228 conditioned media): Yes; Cleaved by conditioned media samples? (MC38 conditioned media): Yes; Cleaved by conditioned media samples? (tumor conditioned media): Yes
